For test [1], the target named is Arabidopsis thaliana PhyB 1–450 fragment assembled with PΦB (Arabidopsis thaliana) (UniProt P14713). Put plainly: SEC; Superdex 200 HR 10/30, 10 °C, 150 mM KCl, 50 mM HEPES-NaOH pH 7.8, 0.3 mM TCEP; samples as Pr; solution size against chromoprotein concentration (a series of concentrations); monomer to dimer or higher oligomer; both purified. On the technique in general: In gel filtration, larger molecules generally elute earlier.

Amino acid sequences for entries named in this document (tags omitted). A change or cut given only in a name is not applied to a line headed by its entry.
UniProt P14713: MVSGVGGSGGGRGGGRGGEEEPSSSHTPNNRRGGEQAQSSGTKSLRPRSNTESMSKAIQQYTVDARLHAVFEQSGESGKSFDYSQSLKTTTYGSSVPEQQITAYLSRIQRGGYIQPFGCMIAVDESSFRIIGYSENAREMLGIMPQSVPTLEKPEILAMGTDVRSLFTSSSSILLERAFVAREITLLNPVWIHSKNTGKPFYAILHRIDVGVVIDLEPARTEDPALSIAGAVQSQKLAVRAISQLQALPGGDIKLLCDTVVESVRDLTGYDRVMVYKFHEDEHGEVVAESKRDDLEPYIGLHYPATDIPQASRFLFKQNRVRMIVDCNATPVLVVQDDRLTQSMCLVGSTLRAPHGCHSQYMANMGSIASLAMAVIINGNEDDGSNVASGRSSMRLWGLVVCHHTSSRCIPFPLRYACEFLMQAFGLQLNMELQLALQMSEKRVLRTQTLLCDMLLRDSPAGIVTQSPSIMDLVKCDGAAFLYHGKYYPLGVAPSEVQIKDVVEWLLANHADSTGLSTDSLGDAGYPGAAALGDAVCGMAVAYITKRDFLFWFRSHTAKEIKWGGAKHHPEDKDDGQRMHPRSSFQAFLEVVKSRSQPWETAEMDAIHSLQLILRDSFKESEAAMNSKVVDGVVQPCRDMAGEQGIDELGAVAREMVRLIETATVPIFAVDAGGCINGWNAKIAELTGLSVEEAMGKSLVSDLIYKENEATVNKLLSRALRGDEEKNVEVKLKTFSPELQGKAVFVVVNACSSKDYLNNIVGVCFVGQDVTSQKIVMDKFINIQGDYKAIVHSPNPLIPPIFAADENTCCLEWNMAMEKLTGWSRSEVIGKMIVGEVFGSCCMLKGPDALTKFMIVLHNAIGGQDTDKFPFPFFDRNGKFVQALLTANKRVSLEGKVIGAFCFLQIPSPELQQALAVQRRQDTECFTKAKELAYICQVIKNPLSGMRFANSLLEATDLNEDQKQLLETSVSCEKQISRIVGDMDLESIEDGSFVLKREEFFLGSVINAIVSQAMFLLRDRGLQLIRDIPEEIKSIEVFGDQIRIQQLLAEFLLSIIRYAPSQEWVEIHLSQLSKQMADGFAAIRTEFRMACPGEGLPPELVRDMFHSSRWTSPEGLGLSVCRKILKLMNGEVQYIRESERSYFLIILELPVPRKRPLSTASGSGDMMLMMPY

For test [2] the target is unchanged. Put plainly: SEC; Superdex 200 HR 10/30, 10 °C, 150 mM KCl, 50 mM HEPES-NaOH pH 7.8, 0.3 mM TCEP; samples as Pr at 0.6 mg/ml; apparent mass from size standards; monomer to dimer; both purified.
Test [3] addresses Arabidopsis thaliana PhyB 1–624 fragment assembled with PΦB (Arabidopsis thaliana) (UniProt P14713). Put plainly: SEC; Superdex 200 HR 10/30, 10 °C, 150 mM KCl, 50 mM HEPES-NaOH pH 7.8, 0.3 mM TCEP; samples as Pr; solution size against chromoprotein concentration (a series of concentrations); monomer to dimer or higher oligomer; both purified.
Test [4] shares this target. In words: SEC; Superdex 200 HR 10/30, 10 °C, 150 mM KCl, 50 mM HEPES-NaOH pH 7.8, 0.3 mM TCEP; samples as Pr at 0.6 mg/ml; apparent mass from size standards; monomer to dimer; both purified.
In test [5] the target is Arabidopsis thaliana PhyB 1–908 fragment assembled with PΦB (Arabidopsis thaliana) (UniProt P14713). In words: negative-stain single-particle EM; as Pr, fixed onto carbon films, stained with phosphotungstic acid; reference-free 2D class averages; low protein concentration; both purified.

These are yes or no findings as the source states them, for the method shown.

Regarding “Arabidopsis thaliana PhyB 1–450 fragment assembled with PΦB (from UniProt P14713 1-450) (domain or fragment)”, the binding result in test [1] is on record as “no binding (tested: all concentrations tested)”; in test [2], “no binding (tested: 0.6 mg/ml)”.
Take “Arabidopsis thaliana PhyB 1–624 fragment assembled with PΦB (from UniProt P14713 1-624) (domain or fragment)”: the binding entry in test [3] was “no binding (tested: all concentrations tested)”; in test [4] it was “no binding (tested: 0.6 mg/ml)”.
As for “Arabidopsis thaliana PhyB 1–908 fragment assembled with PΦB (from UniProt P14713 1-908) (domain or fragment)”, in test [5], the binding result is listed as “no binding (condition: at low protein concentrations)”.

Source of the values: article PMC5651913, “Photosensing and Thermosensing by Phytochrome B Require Both Proximal and Distal Allosteric Features within the Dimeric Photoreceptor” (Scientific Reports, 2017).
